{
  "source": "the supplement of paper PMC8728848",
  "assay_in_all_cases": "glycan array binding signal (z-score within array); higher = stronger binding",
  "details_in_all_cases": "glycan notation: IUPAC condensed, linker removed",
  "key": {"[1]": {"target": "Fuc(a1-2)Gal(b1-4)GlcNAc(b1-3)Gal(b1-4)GlcNAc(b1-3)Gal(b1-4)GlcNAc", "method_in_brief": "(§1)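 The Consortium for Functional Glycomics database supplied 3228 glycan arrays, of which those lacking an available protein sequence were dropped. The binding signal, a within-array Z-score, was averaged across arrays of the same protein sequence and across linkers. Negative scores can be read as non-binding.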"}, "[2]": {"target": "Fuc(a1-2)Gal(b1-4)GlcNAc(b1-3)GalNAc", "method_in_brief": "as §1"}, "[3]": {"target": "Fuc(a1-2)Gal(b1-4)GlcNAc(b1-3)[Fuc(a1-2)Gal(b1-4)GlcNAc(b1-6)]GalNAc", "method_in_brief": "as §1"}, "[4]": {"target": "Fuc(a1-2)Gal(b1-4)GlcNAc(b1-3)[Fuc(a1-3)[Gal(b1-4)]GlcNAc(b1-6)]Gal(b1-4)Glc", "method_in_brief": "as §1"}, "[5]": {"target": "Fuc(a1-2)Gal(b1-4)GlcNAc(b1-6)GalNAc", "method_in_brief": "as §1"}, "[6]": {"target": "Fuc(a1-2)Gal(b1-4)GlcNAc6S", "method_in_brief": "as §1"}, "[7]": {"target": "Fuc(a1-2)Gal(b1-4)[Fuc(a1-3)]GlcNAc", "method_in_brief": "as §1"}, "[8]": {"target": "Fuc(a1-2)Gal(b1-4)[Fuc(a1-3)]GlcNAc(b1-2)Man(a1-3)[Fuc(a1-2)Gal(b1-4)[Fuc(a1-3)]GlcNAc(b1-2)Man(a1-6)]Man(b1-4)GlcNAc(b1-4)[Fuc(a1-6)]GlcNAc", "method_in_brief": "as §1"}, "[9]": {"target": "Fuc(a1-2)Gal(b1-4)[Fuc(a1-3)]GlcNAc(b1-2)[Fuc(a1-2)Gal(b1-4)[Fuc(a1-3)]GlcNAc(b1-4)]Man(a1-3)[Fuc(a1-2)Gal(b1-4)[Fuc(a1-3)]GlcNAc(b1-2)Man(a1-6)]Man(b1-4)GlcNAc(b1-4)GlcNAc", "method_in_brief": "as §1"}, "[10]": {"target": "Fuc(a1-2)Gal(b1-4)[Fuc(a1-3)]GlcNAc(b1-3)Gal(b1-4)[Fuc(a1-3)]GlcNAc", "method_in_brief": "as §1"}, "[11]": {"target": "Fuc(a1-2)Gal(b1-4)[Fuc(a1-3)]GlcNAc(b1-3)Gal(b1-4)[Fuc(a1-3)]GlcNAc(b1-3)Gal(b1-4)[Fuc(a1-3)]GlcNAc", "method_in_brief": "as §1"}, "[12]": {"target": "Fuc(a1-2)Gal(b1-4)[Fuc(a1-3)]GlcNAc(b1-3)GalNAc", "method_in_brief": "as §1"}, "[13]": {"target": "Fuc(a1-2)Gal(b1-4)[Fuc(a1-3)]GlcNAc(b1-3)[Neu5Ac(a2-6)Gal(b1-4)GlcNAc(b1-6)]Gal(b1-4)Glc", "method_in_brief": "as §1"}, "[14]": {"target": "Fuc(a1-2)Gal3S(b1-4)GlcNAc", "method_in_brief": "as §1"}, "[15]": {"target": "Fuc(a1-2)Gal6S(b1-3)GlcNAc", "method_in_brief": "as §1"}, "[16]": {"target": "Fuc(a1-2)Gal6S(b1-3)GlcNAc6S", "method_in_brief": "as §1"}, "Fuc(a1-2)Gal6S(b1-4)Glc": {"target": "Fuc(a1-2)Gal6S(b1-4)Glc", "method_in_brief": "as §1"}, "[17]": {"target": "Fuc(a1-2)Gal6S(b1-4)Glc6S", "method_in_brief": "as §1"}, "Fuc(a1-2)[Gal(a1-3)]Gal": {"target": "Fuc(a1-2)[Gal(a1-3)]Gal", "method_in_brief": "as §1"}, "[18]": {"target": "Fuc(a1-2)[Gal(a1-3)]Gal(b1-3)GalNAc", "method_in_brief": "as §1"}, "[19]": {"target": "Fuc(a1-2)[Gal(a1-3)]Gal(b1-3)GalNAc(b1-3)Gal(a1-4)Gal(b1-4)Glc", "method_in_brief": "as §1"}, "[20]": {"target": "Fuc(a1-2)[Gal(a1-3)]Gal(b1-3)GlcNAc", "method_in_brief": "as §1"}, "[21]": {"target": "Fuc(a1-2)[Gal(a1-3)]Gal(b1-3)GlcNAc(b1-2)Man(a1-3)[Fuc(a1-2)[Gal(a1-3)]Gal(b1-3)GlcNAc(b1-2)Man(a1-6)]Man(b1-4)GlcNAc(b1-4)GlcNAc", "method_in_brief": "as §1"}, "[22]": {"target": "Fuc(a1-2)[Gal(a1-3)]Gal(b1-3)GlcNAc(b1-2)Man(a1-3)[Fuc(a1-2)[Gal(a1-3)]Gal(b1-3)GlcNAc(b1-2)Man(a1-6)]Man(b1-4)GlcNAc(b1-4)[Fuc(a1-6)]GlcNAc", "method_in_brief": "as §1"}, "[23]": {"target": "Fuc(a1-2)[Gal(a1-3)]Gal(b1-3)GlcNAc(b1-3)GalNAc", "method_in_brief": "as §1"}, "[24]": {"target": "Fuc(a1-2)[Gal(a1-3)]Gal(b1-3)GlcNAc(b1-6)GalNAc", "method_in_brief": "as §1"}, "[25]": {"target": "Fuc(a1-2)[Gal(a1-3)]Gal(b1-4)Glc", "method_in_brief": "as §1"}, "[26]": {"target": "Fuc(a1-2)[Gal(a1-3)]Gal(b1-4)GlcNAc", "method_in_brief": "as §1"}, "[27]": {"target": "Fuc(a1-2)[Gal(a1-3)]Gal(b1-4)GlcNAc(b1-2)Man", "method_in_brief": "as §1"}, "[28]": {"target": "Fuc(a1-2)[Gal(a1-3)]Gal(b1-4)GlcNAc(b1-2)Man(a1-3)[Fuc(a1-2)[Gal(a1-3)]Gal(b1-4)GlcNAc(b1-2)Man(a1-6)]Man(b1-4)GlcNAc(b1-4)GlcNAc", "method_in_brief": "as §1"}},
  "note": "This is one part of the list.",
  "data": [
    {"binder": "Blon0732mut (Bifidobacterium longum) (protein) MPTSEHKADDATRHLTLIPAPVTLEYTHGTALIGPLVTIEDADQSWETLPIEQLSDELRHRYGVTVLRRRTHGTVISLGLDSRLAHDEYTLDVSESEGIRVRGGGESGLRYGLQTLRQIIGQTSRAIPCLHIQDKPAFAVRAYSLDVTRGRVPTMEFLTWFVDQLALYKYNQFQLYVEHAFAFVELSEAWRGTDPLTAADITYLDEYCARRGIELVPSLATFGHMYMNLRTREHRGLGEFPEDADRPFSFIERMEHHTLNAADPKAHDFASRLIEEYAPLFRSKSFNIGGNETFDLGRGRSAQDAPEAGRDELYAGFVRDLCETLARHGRQPMLWADIALESPRTMDLLPGDITMLNWMYEPQIDESKIQTIATQGRRQFVCPAVRAWSRFFPDYAGAWLNTYHMALAGTKYDAEGMVVTDWGDYGHVNDPRLSVPGLCYGAQNAWNPIEIDAHEMNRRISALVYGDESGRIMDCLARIDSDGVSFPWDLAVQVLELEYGSGTGALNMDVAACMERSSGGKLTLDRTLGCDDARRRMLQWNRERIERRRDCDQVLRDCGDAFAGLDKGGLTAEFLSVMLDGQRLFNELGEELLALADGKDVGSGANRLAADLELWFERYRAQWLSVGRHAELARIAHVVWSLADILRRGAL", "values": [
      {"measurement": "glycan array binding signal (z-score)", "setting": "[1]", "result": -0.036},
      {"measurement": "glycan array binding signal (z-score)", "setting": "[2]", "result": -0.91},
      {"measurement": "glycan array binding signal (z-score)", "setting": "[3]", "result": -0.755},
      {"measurement": "glycan array binding signal (z-score)", "setting": "[4]", "result": -0.394},
      {"measurement": "glycan array binding signal (z-score)", "setting": "[5]", "result": 0.799},
      {"measurement": "glycan array binding signal (z-score)", "setting": "[6]", "result": -0.652},
      {"measurement": "glycan array binding signal (z-score)", "setting": "[7]", "result": 0.299},
      {"measurement": "glycan array binding signal (z-score)", "setting": "[8]", "result": -0.365},
      {"measurement": "glycan array binding signal (z-score)", "setting": "[9]", "result": 0.841},
      {"measurement": "glycan array binding signal (z-score)", "setting": "[10]", "result": 0.489},
      {"measurement": "glycan array binding signal (z-score)", "setting": "[11]", "result": 1.37},
      {"measurement": "glycan array binding signal (z-score)", "setting": "[12]", "result": 0.653},
      {"measurement": "glycan array binding signal (z-score)", "setting": "[13]", "result": 0.019},
      {"measurement": "glycan array binding signal (z-score)", "setting": "[14]", "result": 0.631},
      {"measurement": "glycan array binding signal (z-score)", "setting": "[15]", "result": -0.351},
      {"measurement": "glycan array binding signal (z-score)", "setting": "[16]", "result": 0.966},
      {"measurement": "glycan array binding signal (z-score)", "setting": "Fuc(a1-2)Gal6S(b1-4)Glc", "result": 0.289},
      {"measurement": "glycan array binding signal (z-score)", "setting": "[17]", "result": -0.321},
      {"measurement": "glycan array binding signal (z-score)", "setting": "Fuc(a1-2)[Gal(a1-3)]Gal", "result": 0.175},
      {"measurement": "glycan array binding signal (z-score)", "setting": "[18]", "result": 0.858},
      {"measurement": "glycan array binding signal (z-score)", "setting": "[19]", "result": -0.88},
      {"measurement": "glycan array binding signal (z-score)", "setting": "[20]", "result": -0.185},
      {"measurement": "glycan array binding signal (z-score)", "setting": "[21]", "result": 1.83},
      {"measurement": "glycan array binding signal (z-score)", "setting": "[22]", "result": 0.09},
      {"measurement": "glycan array binding signal (z-score)", "setting": "[23]", "result": -0.623},
      {"measurement": "glycan array binding signal (z-score)", "setting": "[24]", "result": 0.664},
      {"measurement": "glycan array binding signal (z-score)", "setting": "[25]", "result": -0.847},
      {"measurement": "glycan array binding signal (z-score)", "setting": "[26]", "result": -0.068},
      {"measurement": "glycan array binding signal (z-score)", "setting": "[27]", "result": -0.398},
      {"measurement": "glycan array binding signal (z-score)", "setting": "[28]", "result": -0.864}
    ]}
  ]
}
